{"source": "patent US20170135981A1", "about": "“Method for Suppressing Glucagon Secretion of an SGLT2 Inhibitor” (AstraZeneca AB, priority 2014, published 2017)", "system": "glucagon secretion", "assay": "Plasma glucagon during a liquid meal tolerance test (MTT) at week 24, radioimmunoassay, randomized 24-week study", "type": "in vivo, human", "details": "summary of Table 1, added to metformin", "experimental": "At the beginning of a 4-week lead-in period, all patients were switched to the nearest metformin XR dose (1,500-2,000 mg/day) for the lead-in period and for the duration of the 24-week treatment period. Patients were then randomized to receive saxagliptin 5 mg/day and dapagliflozin 10 mg/day plus metformin (SAXA+DAPA+MET), saxagliptin 5 mg/day and placebo plus metformin (SAXA+MET), or dapagliflozin 10 mg/day and placebo plus metformin (DAPA+MET) for 24 weeks. Patients were prohibited from receiving other antidiabetic medications (except for open-label rescue medications) during the screening and treatment periods. Postprandial glucose (PPG) was assessed at baseline and week 24 following the administration of a liquid meal tolerance test (MTT, 360-375 kcal; protein, 14-28.2 g; fat, 10.5-14 g; carbohydrates 42-45 g; sugars as a component of carbohydrates, 16.8-22 g, investigation-site dependent). […] The mean change from baseline in the area under the curve from 0 to 180 minutes (AUC0-180 min) was calculated for glucagon obtained during the MTT. Plasma glucagon was measured by radioimmunoassay (LINCO Research, St. Charles, Mo.). AUC0-180 min was calculated based on the trapezoidal rule from model-based estimates of the mean at each time point, including observations prior to rescue. […]", "note": "At least one compound was matched to its structure with a doubt left."}
{"compound": "N#C[C@@H]1C[C@@H]2C[C@@H]2N1C(=O)[C@@H](N)C12CC3CC(CC(O)(C3)C1)C2", "note": "[saxagliptin]", "values": [{"measurement": "effect on glucagon levels (in words)", "value": "counteracted, and unexpectedly completely eliminated"}]}
